Data published in patent publication US20260174769A1, “MACROCYCLIC COMPOUNDS AND METHODS OF USE” (AMGEN INC., priority 2022, published 2026).
The structures given here were assigned with low confidence; some may be wrong.

Tested on: phospho-ERK1/2 in PANC 04.03 tumors
Assay: Tumor Pharmacodynamic Assay (p-ERK inhibition in PANC 04.03 tumor-bearing mice)
Details: PANC 04.03 tumor-bearing female athymic nude mice; single oral dose 100 mg/kg; tumors harvested 2 hours later; p-ERK1/2 normalized to total ERK1/2, relative to vehicle group; tested form: 2,2,2-trifluoroacetate; mixture of the
Method: Tumor Pharmacodynamic Assays
Inhibitor pharmacodynamic effects were assessed in PANC 04.03 tumor-bearing mice. PANC 04.03 tumor cells (5.0E+06 cells) were injected subcutaneously into the flank of female athymic nude mice in a mixture with Matrigel (BD Bioscience). Mice received a single oral dose of either vehicle or inhibitors (100 mg/kg) when the average tumor size reached ˜300-600 mm^3 (n=3/group) and harvested 2 hours later. Tumor samples were collected, snap frozen, and processed for analysis by pulverizing with a cryoPREP® Dry Impactor (Covaris). Pulverized samples were resuspended in RIPA lysis buffer containing protease and phosphatase inhibitors and homogenized. Cleared lysates were analyzed using phospho-ERK1/2 and total ERK1/2 whole cell lysate kits (Meso Scale Discovery) according to the manufacturer's protocol. Phospho-ERK1/2 signal was normalized to total ERK1/2 signal for a given sample, and percent inhibition of p-ERK was calculated relative to the vehicle group.

OC1CC2COCCCCc3c(Cl)cc4[nH]ncc4c3-c3ncc4c(nc(OC[C@@]56CCCN5C[C@H](F)C6)nc4c3F)N(C1)C2 (single isomer, unassigned)
p-ERK (% inhibition) 2 hr.: 83%
